{
  "sequences": {"note": "Amino acid sequences for entries named in this document (tags omitted). A change or cut given only in a name is not applied to a line headed by its entry.", "UniProt Q9H237": "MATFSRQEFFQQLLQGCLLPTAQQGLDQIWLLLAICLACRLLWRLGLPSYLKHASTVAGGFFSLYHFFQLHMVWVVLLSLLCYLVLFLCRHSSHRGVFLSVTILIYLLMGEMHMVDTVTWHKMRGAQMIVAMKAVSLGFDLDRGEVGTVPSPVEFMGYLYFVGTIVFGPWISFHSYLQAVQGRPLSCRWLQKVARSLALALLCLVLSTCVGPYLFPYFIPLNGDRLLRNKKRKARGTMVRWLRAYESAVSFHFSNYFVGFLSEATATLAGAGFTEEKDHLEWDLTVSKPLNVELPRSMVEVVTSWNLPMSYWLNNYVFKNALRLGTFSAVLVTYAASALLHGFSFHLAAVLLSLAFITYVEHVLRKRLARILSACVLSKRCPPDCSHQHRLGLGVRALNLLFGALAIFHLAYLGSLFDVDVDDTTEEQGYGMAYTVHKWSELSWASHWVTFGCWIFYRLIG"},
  "source": "paper PMC11536954",
  "target": "recombinant PORCN protein (Cusabio) (UniProt Q9H237)",
  "test": "co-IP; in vitro co-IP in PBS, 200 µl, protein A/G beads with IgG or anti-PORCN antibody; 1 µg GST-Ku70 and 1 µg recombinant PORCN; 4 °C, 2 h; both purified",
  "note": "Results are given in words; binding and its absence hold for the method and conditions named. In cells and extracts the contact can be indirect. Binding can be weak; no strength is given.",
  "data": [
    {"substance": "GST-tagged Ku70 protein (Abnova) (from UniProt P12956 1-609)", "values": [
      {"measurement": "binding", "result": "binds"}
    ]}
  ]
}
